This note sets out measurements from the supplement of paper PMC7125110.

± gives the standard error. The uncertainty is large for many entries.

First the molecules themselves.
B1: glmS ribozyme (parent)
chain: AUAAAAGCGCCAGAACUACAGAAAUGUAGUUGACGAGGAGGAGGUUUAUCGAAUUUUCGGCGGAUGCCUCCAAA

The first data set covers variants of B1. The data set is described as follows: self-cleavage kobs at 640 uM GlcN6P; higher = faster cleavage; RNA array. The settings on record: with glucosamine-6-phosphate. Put shortly: (§1)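 E. coli RNA polymerase transcribed barcoded ribozyme variants in situ on sequenced MiSeq chips, which were tracked via a hybridised Cy3 probe at 37 °C. Tiles were imaged over ~14 h after glucosamine-6-phosphate (40 μM to 10 mM) in HEPES/KCl/Mg(OAc)2 buffer was flowed in. Normalised per-tile medians were fit to one- or two-exponential decays for kobs, and kcat and KM came from weighted Michaelis–Menten fits.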
Regarding AUAAAAGCGCCAGAAUUACAGAAAUGUAGUUGACGAGGAGGGGGUUUAUCGAAUUUCCGGCGGAUGCCUCCAAA, the “self-cleavage kobs at 640 uM GlcN6P” value was 4.56e-05 ± 2.6e-05 s⁻¹.

As for AUAAAAGCGCCAGAAUUACAGAAAUGUAGUUGACGAGGAGGAGGUUAAUCGAAUUUUGGGCGGAUGCCUCCAAA, the “self-cleavage kobs at 640 uM GlcN6P” value worked out at 2.74e-05 ± 2.2e-05 s⁻¹.

In the case of AUAAAAGCGCCAGGACUACAGAAAUGUAGUUGACGAGGAGGAGGUUUAUGGAAUUUUCGGCGGAUGCCUCCAAA, the “self-cleavage kobs at 640 uM GlcN6P” value was determined as 4.95e-05 ± 4.5e-05 s⁻¹.

Turning to AUAAAAGCGCCAGAACUACAGAAAUGUAGUGGACGAGGAGGAGGUUUAUCGAAUUUCCGGCGGAUCCCUUCAAA, the “self-cleavage kobs at 640 uM GlcN6P” value stood at 2.62e-05 ± 2.6e-05 s⁻¹.

As to AUAAAAGCGCCAGAGCUACAGAAAUGUAGUUGACGAGGAGGAGGUUUAUCGAAUUUUCGGCGGAUGGCUCGAAA, the “self-cleavage kobs at 640 uM GlcN6P” value is 4.04e-05 ± 2.1e-05 s⁻¹.

As for AUAAAAGCGCCAGAACUACAGAAAUGUAGUUGAUGAGGAGGAGGUUUAUGGAAUUUUCGGCGGAUGACUCCAAA, the “self-cleavage kobs at 640 uM GlcN6P” value was 2.93e-05 ± 2.3e-05 s⁻¹.

As for AUAAAAGCGCCAGAAUUACAGAAAUGUAGUUGACGAUGAGGAGGUUUAUCGAAUUUUUGGAGGAUGCCGCCAAA, the “self-cleavage kobs at 640 uM GlcN6P” value was 2.78e-05 ± 2.7e-05 s⁻¹.

On to AUAAAAGCGCCAGAACUACAGAAAUGUAGUUGGCGAGGAGGAGGUUUAUCGAAUUUUCGGCGGAUGCCACCAAA, for which the “self-cleavage kobs at 640 uM GlcN6P” value worked out at 0.000329 ± 0.0003 s⁻¹.

For the variant AUAAAAGCGCCAGAACUACAGAAAUGUAGUUGACUAGGAGGAGGUUUAUCGAAUGUUCGGCGGAUGGCUCCAAA, the “self-cleavage kobs at 640 uM GlcN6P” value is 0.00178 ± 0.00094 s⁻¹.

For the variant AUAAAAGCGCCAGCACUACAGAAAUGUAGUUGACGAGGAGGAGGUUCAUCGAAUUUUCGGCGGAUGCCGCAAAA, the “self-cleavage kobs at 640 uM GlcN6P” value is 4.4e-05 ± 2.5e-05 s⁻¹.

As to AUAAAAGCGCCAGAACUACAGAAAUGUAGAUGACGAGGAGGAGGUUUAUCGAAUUUUCGGCGGAUGGCUCGAAA, the “self-cleavage kobs at 640 uM GlcN6P” value came out at 3.31e-05 ± 2.1e-05 s⁻¹.

On to AUAAAAGCGCCAGAACUACAGAAAUGUAGUGGACGAGGAGGAGGUUUAUCGAAUUUUCGGCGGAUGCGUCCAAA, for which the “self-cleavage kobs at 640 uM GlcN6P” value was determined as 2.44e-05 ± 1.4e-05 s⁻¹.

Consider AUAAAAGCGCCAGACCUACAGAAAUGUAGUUGACGAGGAGGAGGUUUAUCGAAUUUUCGGCGGACGCCUCCAAA, for which the “self-cleavage kobs at 640 uM GlcN6P” value came out at 2.66e-05 ± 1.8e-05 s⁻¹.

In the case of AUAAAAGCGCCAGUACUACAGAAAUGUAGUUGAGGAUGAGGAGGUUUAUCGAAUUUUCGGCAGAUGCAUCCAAA, the “self-cleavage kobs at 640 uM GlcN6P” value amounted to 2.35e-05 ± 2.3e-05 s⁻¹.

AUAAAAGCGCCAGAACUACAGAAAUGUAGUUGAGGAGGAGGAGGUUUAUCGAAUUUUCGGCGGAUGGCUCCAAA: the “self-cleavage kobs at 640 uM GlcN6P” value was 0.000674 ± 0.00055 s⁻¹.

For the variant AUAAAAGCGCCAGAAAUACAGAAAUGUAGUUGACGAAGAGGAGGUUUAUCGAAUUUUCGGCGGAUGCCUCCAAA, the “self-cleavage kobs at 640 uM GlcN6P” value amounted to 2.7e-05 ± 1.5e-05 s⁻¹.

AUAAAAGCGCCAGAAUUACAGAAAUGUACUUGACGAGGAGGAGGUUUAUGGAAUUUUCGGCGGAUGCCUCCAAA: the “self-cleavage kobs at 640 uM GlcN6P” value turned out to be 3.84e-05 ± 2.4e-05 s⁻¹.

For the variant AUAAAAGCGCCAGAACUACAGAAAUGUAGUGAACGAGGAGGAGGUUUAUCGAAUUGUCGGCGGAUGCCUCCAAA, the “self-cleavage kobs at 640 uM GlcN6P” value was 5.7e-05 ± 3e-05 s⁻¹.

Turning to AUAAAAGCGCCAGAACUACAGAAAUGUAGUUGGUGAGGAGGAGGUUUAUCGAAUUUUCGGCGGAUGCUUCCAAA, the “self-cleavage kobs at 640 uM GlcN6P” value worked out at 2.88e-05 ± 2.2e-05 s⁻¹.

For the variant AUAAAAGCGCCAGAACUACAGAAAUGUAGCUGACGAGGCGGAGGUUUAUCGAAUUUUCGGCGGAUGCCUCCAAA, the “self-cleavage kobs at 640 uM GlcN6P” value was 1.45e-05 ± 1.3e-05 s⁻¹.

For AUAAAAGCGCCAGAAUUACAGAAAUGUAGUUGACGACGAGGAGGUUUAUCGAAUUUUCGGCGGAUGCCUCCAAA, the “self-cleavage kobs at 640 uM GlcN6P” value turned out to be 1.87e-05 ± 1.8e-05 s⁻¹.

Turning to AUAAAAGCGCCAGAACUACAGAAAUGUAGGUGACGAGGAGGAGGUUUAUCGAAUAUUCGGGGGAUGCCUCGAAA, the “self-cleavage kobs at 640 uM GlcN6P” value worked out at 4.71e-05 ± 2.9e-05 s⁻¹.

Take AUAAAAGCGCCAGAAGUACAGAAAUGUAGUUGACGAGGAGGAGGUUUAUAGAAUUUCCGGCGGAUGCUUCGAAA: the “self-cleavage kobs at 640 uM GlcN6P” value stood at 4.32e-05 ± 2.6e-05 s⁻¹.

Consider AUAAAAGCGCCAGCACUACAGAAAUGUAGGUGACGAGGAGGAGGUUUAUCGGAUUUUCGGCGGAUGCCUCCAAA, for which the “self-cleavage kobs at 640 uM GlcN6P” value amounted to 2.67e-05 ± 2.2e-05 s⁻¹.

With AUAAAAGCGCCAGAACUCCAGAAAUGUAGUGGACGAGGAGGAGGUUUAGCGAAUUUUCGGCGGAUGCCUCCAAA, the “self-cleavage kobs at 640 uM GlcN6P” value stood at 3.57e-05 ± 2.8e-05 s⁻¹.

For the variant AUAAAAGCGCCAGAACUACAGAAAUGUAGUUGGCGAGGAGGAGGUUUAUCGAAUUUUCGGCUGAUGCCGCCAAA, the “self-cleavage kobs at 640 uM GlcN6P” value is 2.98e-05 ± 2.4e-05 s⁻¹.

For AUAAAAGCGCCAGUACUACAGAAAUGUAGUUUACGAGGAGGAGGUUUAUCGAAUUUUCGGCGGAUGCCUCAAAA, the “self-cleavage kobs at 640 uM GlcN6P” value worked out at 3.75e-05 ± 2.5e-05 s⁻¹.

For the variant AUAAAAGCGCCAGAACUACAGAAAUGUAGUUGUCGAGGAGGAGGUUUAUCGAAUUUUCAGCGGAUGCCUCAAAA, the “self-cleavage kobs at 640 uM GlcN6P” value is 4.68e-05 ± 2.6e-05 s⁻¹.

For the variant AUAAAAGCGCCAGAUCUACAGAAAUGUAGUUGACGAGGAGGAGGUUAAUCAAAUUUUCGGCGGAUGGAUCCAAA, the “self-cleavage kobs at 640 uM GlcN6P” value came to 3.52e-05 ± 2.4e-05 s⁻¹.

Take AUAAAAGCGCCAGUACUACAGAAAUGUAGUUGACGAGGAGGAGGUCGAUCGAAUUUUCGGCGGAUGCCUCCAAA: the “self-cleavage kobs at 640 uM GlcN6P” value was 2.68e-05 ± 1.4e-05 s⁻¹.

On to AUAAAAGCGCCAGAACUACAGAAAUGUACUUGACGAGGAGGAGGUUUAUCGAAUUUUCGGCGGGUUCCUCCAAA, for which the “self-cleavage kobs at 640 uM GlcN6P” value worked out at 2.21e-05 ± 1.8e-05 s⁻¹.

As for AUAAAAGCGCCAGAACUACAGAAAUGUAGUUGGCGAGGAGGAGGUUUAUCGAAUUUUCUGCGGAUGCAUCAAAA, the “self-cleavage kobs at 640 uM GlcN6P” value came to 2.55e-05 ± 2.4e-05 s⁻¹.

Variants of B1 are the subject of another data set. Nature of the data set: self-cleavage kobs at 2500 uM GlcN6P; higher = faster cleavage; RNA array. The settings on record: with glucosamine-6-phosphate. In a few lines:
as §1
For the variant AUAAAAGCGCCAGAACUACAGAAAUGUAGUUGGCGAGGAGGAGGUUUAUCGAAUUUUCGGCGGAUGCCACCAAA, the “self-cleavage kobs at 2500 uM GlcN6P” value turned out to be 2.27e-05 ± 2.3e-05 s⁻¹.

As to AUAAAAGCGCCAGAAUUACAGAAAUGUAGUUGACGACGAGGAGGUUUAUCGAAUUUUCGGCGGAUGCCUCCAAA, the “self-cleavage kobs at 2500 uM GlcN6P” value worked out at 1.12e-05 ± 1.1e-05 s⁻¹.

For AUAAAAGCGCCAGAACUCCAGAAAUGUAGUGGACGAGGAGGAGGUUUAGCGAAUUUUCGGCGGAUGCCUCCAAA, the “self-cleavage kobs at 2500 uM GlcN6P” value was 3.09e-05 ± 1.7e-05 s⁻¹.

The variants in the next data set derive from B1. Nature of the data set: self-cleavage kobs at 160 uM GlcN6P; higher = faster cleavage; RNA array. The conditions noted are these: with glucosamine-6-phosphate. In a few lines:
as §1
Regarding AUAAAAGCGCCAGAACUACAGAAAUGUAGUUGGCGAGGAGGAGGUUUAUCGAAUUUUCGGCUGAUGCCGCCAAA, the “self-cleavage kobs at 160 uM GlcN6P” value worked out at 2.16e-05 ± 1.5e-05 s⁻¹.

In the case of AUAAAAGCGCCAGAACUACAGAAAUGUAGUUGGCGAGGAGGAGGUUUAUCGAAUUUUCUGCGGAUGCAUCAAAA, the “self-cleavage kobs at 160 uM GlcN6P” value was 2.48e-05 ± 2.3e-05 s⁻¹.
